The list shows a part of the results.

Protein sequences, listed by entry. Tags and fused reporters are not part of them. Lines headed by an entry give the natural chain unless they say otherwise; changes in a name come on top.
UniProt Q9HBI0: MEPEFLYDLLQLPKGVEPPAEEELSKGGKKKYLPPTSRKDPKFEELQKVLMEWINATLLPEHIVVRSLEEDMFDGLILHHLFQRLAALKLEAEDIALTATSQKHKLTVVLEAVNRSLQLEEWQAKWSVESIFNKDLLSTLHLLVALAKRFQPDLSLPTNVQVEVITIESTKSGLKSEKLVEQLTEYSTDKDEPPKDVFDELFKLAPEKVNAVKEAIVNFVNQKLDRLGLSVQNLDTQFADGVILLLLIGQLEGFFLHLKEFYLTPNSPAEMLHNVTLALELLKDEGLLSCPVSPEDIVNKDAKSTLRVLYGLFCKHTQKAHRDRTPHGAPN
UniProt Q9BW91: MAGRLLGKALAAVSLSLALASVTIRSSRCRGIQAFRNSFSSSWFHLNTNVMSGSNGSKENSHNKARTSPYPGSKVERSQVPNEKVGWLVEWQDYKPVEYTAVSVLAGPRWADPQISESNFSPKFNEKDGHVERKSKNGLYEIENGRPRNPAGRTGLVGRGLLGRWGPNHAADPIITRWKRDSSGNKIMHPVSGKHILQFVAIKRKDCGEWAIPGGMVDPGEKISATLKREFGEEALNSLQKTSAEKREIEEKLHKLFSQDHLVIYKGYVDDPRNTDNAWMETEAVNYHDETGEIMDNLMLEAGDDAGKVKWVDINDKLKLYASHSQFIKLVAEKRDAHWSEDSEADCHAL
UniProt O00330, whole entry: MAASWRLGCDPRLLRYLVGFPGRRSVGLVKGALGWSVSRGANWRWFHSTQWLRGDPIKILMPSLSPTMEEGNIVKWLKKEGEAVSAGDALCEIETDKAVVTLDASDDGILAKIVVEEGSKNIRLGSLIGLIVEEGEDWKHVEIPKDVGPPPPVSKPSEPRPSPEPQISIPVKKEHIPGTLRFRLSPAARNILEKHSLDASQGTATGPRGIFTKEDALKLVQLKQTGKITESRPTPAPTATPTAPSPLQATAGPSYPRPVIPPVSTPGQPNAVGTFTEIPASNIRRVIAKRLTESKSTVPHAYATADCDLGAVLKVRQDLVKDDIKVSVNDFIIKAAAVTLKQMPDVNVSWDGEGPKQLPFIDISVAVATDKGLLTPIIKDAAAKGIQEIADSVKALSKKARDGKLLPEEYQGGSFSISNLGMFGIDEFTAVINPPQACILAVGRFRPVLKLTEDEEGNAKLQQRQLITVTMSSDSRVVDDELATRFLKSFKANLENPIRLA
UniProt Q01804: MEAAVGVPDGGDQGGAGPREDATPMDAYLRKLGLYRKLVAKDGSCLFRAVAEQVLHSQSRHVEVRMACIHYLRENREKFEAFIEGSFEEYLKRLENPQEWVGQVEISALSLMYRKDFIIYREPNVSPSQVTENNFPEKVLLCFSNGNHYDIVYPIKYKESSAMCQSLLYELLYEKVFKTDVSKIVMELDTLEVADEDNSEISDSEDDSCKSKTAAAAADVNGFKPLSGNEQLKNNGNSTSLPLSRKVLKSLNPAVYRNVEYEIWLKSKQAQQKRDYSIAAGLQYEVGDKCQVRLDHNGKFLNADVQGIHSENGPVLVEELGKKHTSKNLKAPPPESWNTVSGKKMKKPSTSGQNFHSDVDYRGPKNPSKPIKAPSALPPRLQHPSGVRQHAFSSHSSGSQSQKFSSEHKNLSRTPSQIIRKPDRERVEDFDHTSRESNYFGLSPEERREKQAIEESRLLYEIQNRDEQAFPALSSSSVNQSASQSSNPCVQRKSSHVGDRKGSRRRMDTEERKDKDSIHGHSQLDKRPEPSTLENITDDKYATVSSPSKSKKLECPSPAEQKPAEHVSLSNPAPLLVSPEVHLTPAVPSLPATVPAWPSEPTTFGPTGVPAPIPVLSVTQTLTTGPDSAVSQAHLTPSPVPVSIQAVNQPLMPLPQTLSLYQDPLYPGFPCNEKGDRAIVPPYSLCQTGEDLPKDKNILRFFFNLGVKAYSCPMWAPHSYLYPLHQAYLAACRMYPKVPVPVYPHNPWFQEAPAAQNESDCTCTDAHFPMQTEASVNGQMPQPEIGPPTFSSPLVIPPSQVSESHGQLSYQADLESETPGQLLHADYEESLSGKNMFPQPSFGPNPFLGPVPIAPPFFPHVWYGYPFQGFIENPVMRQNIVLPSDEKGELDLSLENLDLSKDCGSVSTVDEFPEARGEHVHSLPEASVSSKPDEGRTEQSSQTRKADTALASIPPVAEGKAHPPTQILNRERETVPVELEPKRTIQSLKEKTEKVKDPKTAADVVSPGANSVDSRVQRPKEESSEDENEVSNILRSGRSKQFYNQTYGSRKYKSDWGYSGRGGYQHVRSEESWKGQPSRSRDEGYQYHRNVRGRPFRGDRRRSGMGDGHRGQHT
UniProt Q9NRP0: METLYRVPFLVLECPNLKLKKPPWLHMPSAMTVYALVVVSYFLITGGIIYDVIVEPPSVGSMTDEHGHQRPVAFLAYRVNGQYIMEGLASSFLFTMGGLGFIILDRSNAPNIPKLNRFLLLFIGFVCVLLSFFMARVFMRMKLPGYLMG
UniProt Q15121, whole entry: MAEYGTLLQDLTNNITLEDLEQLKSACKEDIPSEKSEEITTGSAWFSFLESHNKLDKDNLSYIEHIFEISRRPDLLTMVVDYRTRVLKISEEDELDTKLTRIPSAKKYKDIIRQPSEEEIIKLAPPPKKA
UniProt O15530: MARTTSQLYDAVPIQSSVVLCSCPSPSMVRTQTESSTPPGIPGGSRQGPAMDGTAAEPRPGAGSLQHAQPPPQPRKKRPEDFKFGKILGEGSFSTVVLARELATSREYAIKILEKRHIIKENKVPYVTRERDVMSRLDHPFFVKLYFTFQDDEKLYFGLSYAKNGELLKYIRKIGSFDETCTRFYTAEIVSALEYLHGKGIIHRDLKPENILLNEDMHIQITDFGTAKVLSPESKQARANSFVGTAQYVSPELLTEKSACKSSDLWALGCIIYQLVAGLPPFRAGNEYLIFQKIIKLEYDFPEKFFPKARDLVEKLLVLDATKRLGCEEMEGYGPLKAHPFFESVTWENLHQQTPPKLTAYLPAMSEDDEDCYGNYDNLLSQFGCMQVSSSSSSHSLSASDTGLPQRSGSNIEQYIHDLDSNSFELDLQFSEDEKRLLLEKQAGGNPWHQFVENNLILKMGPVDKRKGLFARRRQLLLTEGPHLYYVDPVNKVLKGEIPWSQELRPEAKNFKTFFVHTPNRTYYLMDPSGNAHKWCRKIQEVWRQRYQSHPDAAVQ
UniProt Q15120, whole entry, looked up: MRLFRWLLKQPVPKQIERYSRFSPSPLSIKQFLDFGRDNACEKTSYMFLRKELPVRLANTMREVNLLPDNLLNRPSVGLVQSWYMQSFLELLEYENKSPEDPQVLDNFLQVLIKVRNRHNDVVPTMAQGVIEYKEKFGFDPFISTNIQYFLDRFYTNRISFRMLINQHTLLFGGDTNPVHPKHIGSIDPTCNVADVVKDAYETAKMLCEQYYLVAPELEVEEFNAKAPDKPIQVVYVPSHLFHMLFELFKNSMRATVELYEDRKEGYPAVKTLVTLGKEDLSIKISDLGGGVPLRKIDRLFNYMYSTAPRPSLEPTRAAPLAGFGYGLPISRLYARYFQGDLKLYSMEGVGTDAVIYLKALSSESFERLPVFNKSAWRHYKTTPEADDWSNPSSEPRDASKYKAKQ
UniProt Q15154: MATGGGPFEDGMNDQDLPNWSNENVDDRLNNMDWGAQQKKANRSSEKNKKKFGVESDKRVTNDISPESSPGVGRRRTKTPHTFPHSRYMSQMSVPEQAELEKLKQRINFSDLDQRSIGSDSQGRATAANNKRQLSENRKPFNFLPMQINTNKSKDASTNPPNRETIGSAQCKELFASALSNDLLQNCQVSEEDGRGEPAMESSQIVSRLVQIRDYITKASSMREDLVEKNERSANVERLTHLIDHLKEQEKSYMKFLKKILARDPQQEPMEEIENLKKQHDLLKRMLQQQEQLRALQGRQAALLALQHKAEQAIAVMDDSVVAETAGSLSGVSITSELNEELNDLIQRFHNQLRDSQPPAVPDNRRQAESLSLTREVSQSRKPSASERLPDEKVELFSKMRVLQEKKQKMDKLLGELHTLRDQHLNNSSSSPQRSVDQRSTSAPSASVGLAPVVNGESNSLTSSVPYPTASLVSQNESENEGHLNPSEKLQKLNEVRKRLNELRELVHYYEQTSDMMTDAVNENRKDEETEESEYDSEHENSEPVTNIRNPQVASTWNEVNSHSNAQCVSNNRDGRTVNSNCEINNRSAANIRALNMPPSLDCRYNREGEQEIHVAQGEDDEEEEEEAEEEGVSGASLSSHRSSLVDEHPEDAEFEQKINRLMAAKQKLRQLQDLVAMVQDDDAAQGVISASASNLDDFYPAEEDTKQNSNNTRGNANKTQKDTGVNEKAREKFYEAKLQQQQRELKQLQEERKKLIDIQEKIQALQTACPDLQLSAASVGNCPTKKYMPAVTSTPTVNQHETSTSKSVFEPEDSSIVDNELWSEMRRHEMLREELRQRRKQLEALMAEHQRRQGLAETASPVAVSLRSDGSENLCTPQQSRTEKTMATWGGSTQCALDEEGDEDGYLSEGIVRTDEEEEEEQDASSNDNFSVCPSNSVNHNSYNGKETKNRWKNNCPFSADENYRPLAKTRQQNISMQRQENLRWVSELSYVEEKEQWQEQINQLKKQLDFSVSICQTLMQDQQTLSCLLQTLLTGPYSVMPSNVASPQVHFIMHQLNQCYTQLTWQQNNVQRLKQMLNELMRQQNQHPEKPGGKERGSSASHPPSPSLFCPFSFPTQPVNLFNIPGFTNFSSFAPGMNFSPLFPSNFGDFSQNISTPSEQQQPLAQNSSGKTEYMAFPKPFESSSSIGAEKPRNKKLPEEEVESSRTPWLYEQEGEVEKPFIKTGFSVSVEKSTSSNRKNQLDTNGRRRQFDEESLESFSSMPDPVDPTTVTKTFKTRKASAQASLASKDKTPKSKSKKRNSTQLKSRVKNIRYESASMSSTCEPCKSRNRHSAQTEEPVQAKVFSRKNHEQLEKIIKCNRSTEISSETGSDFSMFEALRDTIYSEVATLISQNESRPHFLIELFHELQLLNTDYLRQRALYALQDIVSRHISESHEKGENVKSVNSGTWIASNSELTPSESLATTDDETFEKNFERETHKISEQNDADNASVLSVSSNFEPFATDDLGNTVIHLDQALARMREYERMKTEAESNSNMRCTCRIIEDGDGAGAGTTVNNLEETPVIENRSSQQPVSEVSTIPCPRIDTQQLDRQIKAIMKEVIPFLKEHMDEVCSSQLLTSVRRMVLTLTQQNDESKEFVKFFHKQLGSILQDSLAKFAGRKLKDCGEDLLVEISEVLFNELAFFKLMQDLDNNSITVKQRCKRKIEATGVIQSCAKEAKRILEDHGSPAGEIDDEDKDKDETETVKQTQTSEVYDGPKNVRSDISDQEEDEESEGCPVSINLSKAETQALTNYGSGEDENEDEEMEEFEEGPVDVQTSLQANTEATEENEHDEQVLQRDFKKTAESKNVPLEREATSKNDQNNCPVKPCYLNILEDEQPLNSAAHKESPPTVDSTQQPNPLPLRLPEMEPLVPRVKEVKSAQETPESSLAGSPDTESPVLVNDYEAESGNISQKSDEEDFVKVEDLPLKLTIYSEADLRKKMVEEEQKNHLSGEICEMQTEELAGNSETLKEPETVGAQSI
UniProt P51003: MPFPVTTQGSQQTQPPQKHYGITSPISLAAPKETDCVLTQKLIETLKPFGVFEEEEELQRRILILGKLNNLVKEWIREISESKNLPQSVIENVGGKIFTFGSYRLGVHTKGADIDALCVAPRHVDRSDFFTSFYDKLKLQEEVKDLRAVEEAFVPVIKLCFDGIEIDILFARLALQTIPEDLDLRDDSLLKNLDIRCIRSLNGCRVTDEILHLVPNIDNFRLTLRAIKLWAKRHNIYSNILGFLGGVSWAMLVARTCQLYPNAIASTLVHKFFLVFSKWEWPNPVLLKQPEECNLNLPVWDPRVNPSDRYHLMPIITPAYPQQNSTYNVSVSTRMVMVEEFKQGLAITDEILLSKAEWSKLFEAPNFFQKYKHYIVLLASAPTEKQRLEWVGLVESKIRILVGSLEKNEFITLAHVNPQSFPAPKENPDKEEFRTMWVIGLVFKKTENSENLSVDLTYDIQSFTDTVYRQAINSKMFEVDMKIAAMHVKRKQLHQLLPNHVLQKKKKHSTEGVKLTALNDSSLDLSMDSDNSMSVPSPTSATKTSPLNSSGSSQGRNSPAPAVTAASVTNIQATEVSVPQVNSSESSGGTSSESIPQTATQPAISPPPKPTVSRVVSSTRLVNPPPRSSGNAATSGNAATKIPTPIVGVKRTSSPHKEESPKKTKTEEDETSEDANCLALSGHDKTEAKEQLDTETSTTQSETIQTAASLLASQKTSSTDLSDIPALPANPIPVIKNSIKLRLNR
UniProt Q9NV35: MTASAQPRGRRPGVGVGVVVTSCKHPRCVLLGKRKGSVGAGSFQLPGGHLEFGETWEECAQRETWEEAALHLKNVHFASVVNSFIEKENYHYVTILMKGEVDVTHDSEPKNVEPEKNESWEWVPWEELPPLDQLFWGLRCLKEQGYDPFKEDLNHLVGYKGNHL

Compound in the experiment: COc1ccc(Cn2ccc3ccc(C(=O)NO)cc32)cc1
In words: dose-dependent thermal stabilisation call (2D-TPP, DLPTP, 10% FDR) (binary (1 = stabilised)); higher = stabilised by the compound. The following applies: system: HL-60 intact cells; concentration range 0.04-10 µM.
For PEX5 (UniProt P50542), the “dose-dependent thermal stabilisation call” value is inactive: 0. For PARVG (UniProt Q9HBI0) the value was inactive: 0; for NUDT9 (UniProt Q9BW91), inactive: 0. For PA2G4 (UniProt Q9UQ80) the value was inactive: 0; for PDHX (UniProt O00330), inactive: 0. As for PARN (UniProt O95453), the “dose-dependent thermal stabilisation call” value was inactive: 0.

In the case of OTUB1 (UniProt Q96FW1), the “dose-dependent thermal stabilisation call” value was inactive: 0. For the target PDDC1 (UniProt Q8NB37), the “dose-dependent thermal stabilisation call” value is inactive: 0. Regarding NUPL1 (UniProt Q9BVL2), the “dose-dependent thermal stabilisation call” value was inactive: 0. For NSDHL (UniProt Q15738), the “dose-dependent thermal stabilisation call” value is active: 1.

In the case of PARD3 (UniProt Q8TEW0), the “dose-dependent thermal stabilisation call” value was inactive: 0. In the case of PAIP1 (UniProt Q9H074), the “dose-dependent thermal stabilisation call” value is inactive: 0. Take PAFAH1B2 (UniProt P68402): the “dose-dependent thermal stabilisation call” value is inactive: 0. PDXP (UniProt Q96GD0): the “dose-dependent thermal stabilisation call” value is inactive: 0. In the case of PARD6B (UniProt Q9BYG5), the “dose-dependent thermal stabilisation call” value is inactive: 0. For PES1 (UniProt O00541) the value was inactive: 0; for PELP1 (UniProt Q8IZL8), inactive: 0; for OTUD4 (UniProt Q01804), inactive: 0.

With PAK1IP1 (UniProt Q9NWT1), the “dose-dependent thermal stabilisation call” value was inactive: 0. On to NUMB (UniProt P49757), for which the “dose-dependent thermal stabilisation call” value is inactive: 0. For PABPC4 (UniProt Q13310), the “dose-dependent thermal stabilisation call” value was inactive: 0. Consider NUP62 (UniProt P37198), for which the “dose-dependent thermal stabilisation call” value was inactive: 0. For PBRM1 (UniProt Q86U86) the value was inactive: 0; for OSTC (UniProt Q9NRP0), inactive: 0. As to NR2F2 (UniProt P24468), the “dose-dependent thermal stabilisation call” value was inactive: 0. PEA15 (UniProt Q15121): the “dose-dependent thermal stabilisation call” value was inactive: 0.

NUP37 (UniProt Q8NFH4): the “dose-dependent thermal stabilisation call” value is active: 1. As to NR2C2 (UniProt P49116), the “dose-dependent thermal stabilisation call” value is inactive: 0. For NR3C1 (UniProt P04150) the value was inactive: 0; for OGFOD3 (UniProt Q6PK18), inactive: 0; for PDE4DIP (UniProt Q5VU43), inactive: 0. Regarding PDPK1 (UniProt O15530), the “dose-dependent thermal stabilisation call” value was inactive: 0.

For the target PDK3 (UniProt Q15120), the “dose-dependent thermal stabilisation call” value is inactive: 0. For PAK1 (UniProt Q13153) the value was inactive: 0. On to PCM1 (UniProt Q15154), for which the “dose-dependent thermal stabilisation call” value was inactive: 0. On to PAPOLA (UniProt P51003), for which the “dose-dependent thermal stabilisation call” value was inactive: 0. OSGEPL1 (UniProt Q9H4B0): the “dose-dependent thermal stabilisation call” value was inactive: 0. For NUDT15 (UniProt Q9NV35) the value was inactive: 0.

For the origin of these results see the supplement of paper PMC7666118.
